The target in this assay is T1, GFP-CRN5 stably over-expressed in U373 cells (human) (UniProt Q92828).
T1 sequence: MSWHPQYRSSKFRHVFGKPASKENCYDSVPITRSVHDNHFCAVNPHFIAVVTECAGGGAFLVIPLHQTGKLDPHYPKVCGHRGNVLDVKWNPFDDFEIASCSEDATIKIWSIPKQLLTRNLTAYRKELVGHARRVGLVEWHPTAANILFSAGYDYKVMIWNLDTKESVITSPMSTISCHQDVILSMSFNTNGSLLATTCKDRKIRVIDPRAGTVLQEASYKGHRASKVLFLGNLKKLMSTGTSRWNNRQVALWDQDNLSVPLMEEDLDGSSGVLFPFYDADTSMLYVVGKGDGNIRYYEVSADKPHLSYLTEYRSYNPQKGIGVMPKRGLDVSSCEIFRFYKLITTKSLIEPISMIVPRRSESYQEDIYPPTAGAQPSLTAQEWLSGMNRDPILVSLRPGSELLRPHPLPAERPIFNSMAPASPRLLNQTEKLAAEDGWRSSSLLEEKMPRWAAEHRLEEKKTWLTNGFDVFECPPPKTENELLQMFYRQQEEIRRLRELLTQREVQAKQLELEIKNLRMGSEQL
The experiment in a line: affinity purification with mass spectrometry; lysates of U373 cells stably over-expressing GFP-CRN5; GFP-antibody coated magnetic microbeads; washes with 50 mM Tris HCl pH 8.0, 150 mM NaCl, 0.1 % Triton X-100; SDS-PAGE, Coomassie bands identified by mass spectrometry.

By UniProt entry, the sequences of proteins in these tests, tags left out.
UniProt O14744: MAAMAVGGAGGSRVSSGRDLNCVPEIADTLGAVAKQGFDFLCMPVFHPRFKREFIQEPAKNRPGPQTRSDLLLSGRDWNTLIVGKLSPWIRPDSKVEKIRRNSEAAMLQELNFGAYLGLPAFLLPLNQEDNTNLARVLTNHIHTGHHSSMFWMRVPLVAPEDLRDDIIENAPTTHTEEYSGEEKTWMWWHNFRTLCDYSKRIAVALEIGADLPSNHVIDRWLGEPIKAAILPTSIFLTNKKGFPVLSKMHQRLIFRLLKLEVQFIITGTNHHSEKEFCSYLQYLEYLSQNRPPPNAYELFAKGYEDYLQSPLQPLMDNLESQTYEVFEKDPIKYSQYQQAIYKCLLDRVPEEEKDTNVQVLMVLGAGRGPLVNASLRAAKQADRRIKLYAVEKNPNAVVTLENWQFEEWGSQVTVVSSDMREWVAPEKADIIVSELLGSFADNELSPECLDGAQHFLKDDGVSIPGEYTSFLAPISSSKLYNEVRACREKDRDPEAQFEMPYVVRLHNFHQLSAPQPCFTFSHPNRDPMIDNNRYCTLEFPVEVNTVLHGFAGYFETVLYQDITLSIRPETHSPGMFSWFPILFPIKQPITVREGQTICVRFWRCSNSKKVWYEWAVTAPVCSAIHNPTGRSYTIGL

Results are given in words; binding and its absence hold for the method and conditions named. In cells and extracts the contact can be indirect. A yes stands for co-enrichment or nearness to the bait. Other partners may have been found. Where a sequence is shown, tags or fusion partners need not be part of it.

For the substance “PRMT5 (protein arginine N-methyltransferase 5), endogenous (from UniProt O14744 1-637) (enzyme)”, the binding result is recorded as “binds”.

The values above are taken from paper PMC4612562, “Coronin 2A (CRN5) expression is associated with colorectal adenoma-adenocarcinoma sequence and oncogenic signalling” (BMC Cancer, 2015).
